This assay deals with Matrix metalloproteinase 3 (human (endogenous in OVCAR3CIS)) (UniProt P08254). Kind of assay: affinity purification with mass spectrometry; extracellular MMP3: supernatants of serum-free OVCAR3CIS cells, untreated or cisplatin-treated, pre-cleared on protein A/G magnetic beads, anti-MMP3 antibody (Abcam) 10 ug/200 ug protein at 4 °C overnight, protein A/G magnetic beads (Pierce MS-compatible Magnetic IP Kit), eluate by LC-MS/MS.

Amino acid sequences for entries named in this document (tags omitted). A change or cut given only in a name is not applied to a line headed by its entry.
UniProt P08254: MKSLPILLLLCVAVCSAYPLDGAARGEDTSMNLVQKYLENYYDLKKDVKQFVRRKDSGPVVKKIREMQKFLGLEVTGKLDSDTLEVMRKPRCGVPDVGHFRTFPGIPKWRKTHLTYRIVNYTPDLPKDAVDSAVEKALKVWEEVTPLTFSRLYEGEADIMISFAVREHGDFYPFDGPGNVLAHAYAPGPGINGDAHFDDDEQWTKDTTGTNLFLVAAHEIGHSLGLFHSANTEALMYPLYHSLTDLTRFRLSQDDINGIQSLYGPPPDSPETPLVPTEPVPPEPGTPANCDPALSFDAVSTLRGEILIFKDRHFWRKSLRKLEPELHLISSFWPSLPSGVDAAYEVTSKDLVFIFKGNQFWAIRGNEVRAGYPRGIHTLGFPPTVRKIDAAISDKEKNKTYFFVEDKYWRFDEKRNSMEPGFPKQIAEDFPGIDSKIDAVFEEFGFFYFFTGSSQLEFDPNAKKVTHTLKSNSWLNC

Our source for the binding values is publication PMC12071843.

No constants are given. Whether binding was seen depends on the method and setting. Binding seen in cells or lysates may run through a third protein. A yes stands for co-enrichment or nearness to the bait. Other partners may have been found.

B1: Phospholipid-transporting ATPase VB (protein, UniProt O94823 1-1461)
chain: MALSVDSSWHRWQWRVRDGFPHCPSETTPLLSPEKGRQSYNLTQQRVVFPNNSIFHQDWEEVSRRYPGNRTCTTKYTLFTFLPRNLFEQFHRWANLYFLFLVILNWMPSMEVFHREITMLPLAIVLFVIMIKDGMEDFKRHRFDKAINCSNIRIYERKEQTYVQKCWKDVRVGDFIQMKCNEIVPADILLLFSSDPNGICHLETASLDGETNLKQRCVVKGFSQQEVQFEPELFHNTIVCEKPNNHLNKFKGYMEHPDQTRTGFGCESLLLRGCTIRNTEMAVGIVIYAGHETKAMLNNSGPRYKRSKIERRMNIDIFFCIGILILMCLIGAVGHSIWNGTFEEHPPFDVPDANGSFLPSALGGFYMFLTMIILLQVLIPISLYVSIELVKLGQVFFLSNDLDLYDEETDLSIQCRALNIAEDLGQIQYIFSDKTGTLTENKMVFRRCTIMGSEYSHQENAKRLETPKELDSDGEEWTQYQCLSFSARWAQDPATMRSQKGAQPLRRSQSARVPIQGHYRQRSMGHRESSQPPVAFSSSIEKDVTPDKNLLTKVRDAALWLETLSDSRPAKASLSTTSSIADFFLALTICNSVMVSTTTEPRQRVTIKPSSKALGTSLEKIQQLFQKLKLLSLSQSFSSTAPSDTDLGESLGANVATTDSDERDDASVCSGGDSTDDGGYRSSMWDQGDILESGSGTSLEEALEAPATDLARPEFCYEAESPDEAALVHAAHAYSFTLVSRTPEQVTVRLPQGTCLTFSLLCTLGFDSVRKRMSVVVRHPLTGEIVVYTKGADSVIMDLLEDPACVPDINMEKKLRKIRARTQKHLDLYARDGLRTLCIAKKVVSEEDFRRWASFRREAEASLDNRDELLMETAQHLENQLTLLGATGIEDRLQEGVPDTIATLREAGIQLWVLTGDKQETAVNIAHSCRLLNQTDTVYTINTENQETCESILNCALEELKQFRELQKPDRKLFGFRLPSKTPSITSEAVVPEAGLVIDGKTLNAIFQGKLEKKFLELTQYCRSVLCCRSTPLQKSMIVKLVRDKLRVMTLSIGDGANDVSMIQAADIGIGISGQEGMQAVMSSDFAITRFKHLKKLLLVHGHWCYSRLARMVVYYLYKNVCYVNLLFWYQFFCGFSSSTMIDYWQMIFFNLFFTSLPPLVFGVLDKDISAETLLALPELYKSGQNSECYNLSTFWISMVDAFYQSLICFFIPYLAYKGSDIDVFTFGTPINTISLTTILLHQAMEMKTWTIFHGVVLLGSFLMYFLVSLLYNATCVICNSPTNPYWVMEGQLSNPTFYLVCFLTPVVALLPRYFFLSLQGTCGKSLISKAQKIDKLPPDKRNLEIQSWRSRQRPAPVPEVARPTHHPVSSITGQDFSASTPKSSNPPKRKHVEESVLHEQRCGTECMRDDSCSGDSSAQLSSGEHLLGPNRIMAYSRGQTDMCRCSKRSSHRRSQSSLTI
Consider B1, for which the binding entry is given as “binds”.

B2: Uncharacterized protein KIAA0232 (protein, UniProt Q92628 1-1395)
chain: MYPICTVVVDGLPSESSSSSYPGPVSVSEMSLLHALGPVQTWLGQELEKCGIDAMIYTRYVLSLLLHDSYDYDLQEQENDIFLGWEKGAYKKWGKSKKKCSDLTLEEMKKQAAVQCLRSASDESSGIETLVEELCSRLKDLQSKQEEKIHKKLEGSPSPEAELSPPAKDQVEMYYEAFPPLSEKPVCLQEIMTVWNKSKVCSYSSSSSSSTAPPASTDTSSPKDCNSESEVTKERSSEVPTTVHEKTQSKSKNEKENKFSNGTIEEKPALYKKQIRHKPEGKIRPRSWSSGSSEAGSSSSGNQGELKASMKYVKVRHKAREIRNKKGRNGQSRLSLKHGEKAERNIHTGSSSSSSSGSVKQLCKRGKRPLKEIGRKDPGSTEGKDLYMENRKDTEYKEEPLWYTEPIAEYFVPLSRKSKLETTYRNRQDTSDLTSEAVEELSESVHGLCISNNNLHKTYLAAGTFIDGHFVEMPAVINEDIDLTGTSLCSLPEDNKYLDDIHLSELTHFYEVDIDQSMLDPGASETMQGESRILNMIRQKSKENTDFEAECCIVLDGMELQGERAIWTDSTSSVGAEGLFLQDLGNLAQFWECCSSSSGDADGESFGGDSPVRLSPILDSTVLNSHLLAGNQELFSDINEGSGINSCFSVFEVQCSNSVLPFSFETLNLGNENTDSSANMLGKTQSRLLIWTKNSAFEENEHCSNLSTRTCSPWSHSEETRSDNETLNIQFEESTQFNAEDINYVVPRVSSNYVDEELLDFLQDETCQQNSRTLGEIPTLVFKKTSKLESVCGIQLEQKTENKNFETTQVCNESPHGDGYSSGVIKDIWTKMADTNSVATVEIERTDAELFSADVNNYCCCLDAEAELETLQEPDKAVRRSEYHLWEGQKESLEKRAFASSELSNVDGGDYTTPSKPWDVAQDKENTFILGGVYGELKTFNSDGEWAVVPPSHTKGSLLQCAASDVVTIAGTDVFMTPGNSFAPGHRQLWKPFVSFEQNDQPKSGENGLNKGFSFIFHEDLLGACGNFQVEDPGLEYSFSSFDLSNPFSQVLHVECSFEPEGIASFSPSFKPKSILCSDSDSEVFHPRICGVDRTQYRAIRISPRTHFRPISASELSPGGGSESEFESEKDEANIPIPSQVDIFEDPQADLKPLEEDAEKEGHYYGKSELESGKFLPRLKKSGMEKSAQTSLDSQEESTGILSVGKQNQCLECSMNESLEIDLESSEANCKIMAQCEEEINNFCGCKAGCQFPAYEDNPVSSGQLEEFPVLNTDIQGMNRSQEKQTWWEKALYSPLFPASECEECYTNAKGESGLEEYPDAKETPSNEERLLDFNRVSSVYEARCTGERDSGAKSDGFRGKMCSSASSTSEETGSEGGGEWVGPSEEELFSRTHL
In the case of B2, the binding result is “binds”.

B3: Nuclear pore-associated protein 1 (protein, UniProt Q9NZP6 1-1156)
chain: MGNLLSKFRPGCRRRPLPGPGRGAPAPLSRDASPPGRAHSVPTPRPFRGLFRRNARRRPSAASIFVAPKRPCPLPRAAAAPLGVLPAVGWGLAIRKTPMLPARNPPRFGHPSSVRIPPPSRMFTLLLPSPREPAVKARKPIPATLLEETEVWAQEGPRRVKKDEDPVQIEGEDDEKRTPLSSGEASSTSRSQGTQGDVASFRCSPGPLEGNVYHKFSENSMSEKAQASPASSCLEGPAMPSTHSQAGCARHLGKPDPDATAPPEPAVGCSLLQQKLAAEVLNEEPPPSSLGLPIPLMSGKRMPDEKPFCIPPRSAAPPRAARNRPCKRKMSIPLLLPLPPSLPLLWDRGELPPPAKLPCLSVEGDLHTLEKSPEYKRNSRILEDKTETMTNSSITQPAPSFSQPVQTTDSLPLTTYTSQVSAPLPIPDLADLATGPLILPIPPLSTTPKMDEKIAFTIPNSPLALPADLVPILGDQSNEKGGSYNSVVGAAPLTSDPPTPPSSTPSFKPPVTRESPISMCVDSPPPLSFLTLLPVPSTGTSVITSKPMNSTSVISTVTTNASAHLTSQTAVDPEVVNMDTTAPSQVVIFTSSLSSRVSSLPNSQIHCSAEQRHPGKTSVYTSPLPFIFHNTTPSFNQLFGKEATPQPKFEAPDGQPQKASLPSACVFLSLPIIPPPDTSTLVNSASTASSSKPPIETNAMHTTPPSKAVILQSASVSKKYLPFYLGLPGSGNTQPSGNTASVQGSTSLPAQSVRAPATASNHPLNPGATPQPKFGAPDGPQQKTSLPSAHDFLSLPIMVPPDTSTLVSSASAASLSKPAIDTSDMNTTPPSKTVILQSTFVSRKEEYIRFYMGLPGSGNTLHSDSIASAQVSTSFPAQADRRPTTTSSHPLNTGSISHSTLGATDGQQKSDSSFILGNPATPAPVIGLTSPSVQPLSGSIIPPGFAELTSPYTALGTPVNAEPVEGHNASAFPNGTAKTSGFRIATGMPGTGDSTLLVGNTIPGPQVIMGPGTPMDGGSIGFSMSAPGPSSTSGELNIGQGQSGTPSTTSVFPFGQAAWDPTGHSMAAAPQGASNIPVFGYTSAAAYIPGLDPPTQNSCSGMGGDGTRSIVGGPCVPAFQQCILQHTWTERKFYTSSTHYYGQETYVRRHVCFQLP
For B3, the binding result was “binds”.
